Laboratory results taken from article PMC5225440.
No constants are given. Whether binding was seen depends on the method and setting. In cells and extracts the contact can be indirect. Some binding calls cover weakened binding; strength is not graded here.

Sequences of proteins named here, by UniProt entry; tags and fusion partners are left off.
UniProt O14974: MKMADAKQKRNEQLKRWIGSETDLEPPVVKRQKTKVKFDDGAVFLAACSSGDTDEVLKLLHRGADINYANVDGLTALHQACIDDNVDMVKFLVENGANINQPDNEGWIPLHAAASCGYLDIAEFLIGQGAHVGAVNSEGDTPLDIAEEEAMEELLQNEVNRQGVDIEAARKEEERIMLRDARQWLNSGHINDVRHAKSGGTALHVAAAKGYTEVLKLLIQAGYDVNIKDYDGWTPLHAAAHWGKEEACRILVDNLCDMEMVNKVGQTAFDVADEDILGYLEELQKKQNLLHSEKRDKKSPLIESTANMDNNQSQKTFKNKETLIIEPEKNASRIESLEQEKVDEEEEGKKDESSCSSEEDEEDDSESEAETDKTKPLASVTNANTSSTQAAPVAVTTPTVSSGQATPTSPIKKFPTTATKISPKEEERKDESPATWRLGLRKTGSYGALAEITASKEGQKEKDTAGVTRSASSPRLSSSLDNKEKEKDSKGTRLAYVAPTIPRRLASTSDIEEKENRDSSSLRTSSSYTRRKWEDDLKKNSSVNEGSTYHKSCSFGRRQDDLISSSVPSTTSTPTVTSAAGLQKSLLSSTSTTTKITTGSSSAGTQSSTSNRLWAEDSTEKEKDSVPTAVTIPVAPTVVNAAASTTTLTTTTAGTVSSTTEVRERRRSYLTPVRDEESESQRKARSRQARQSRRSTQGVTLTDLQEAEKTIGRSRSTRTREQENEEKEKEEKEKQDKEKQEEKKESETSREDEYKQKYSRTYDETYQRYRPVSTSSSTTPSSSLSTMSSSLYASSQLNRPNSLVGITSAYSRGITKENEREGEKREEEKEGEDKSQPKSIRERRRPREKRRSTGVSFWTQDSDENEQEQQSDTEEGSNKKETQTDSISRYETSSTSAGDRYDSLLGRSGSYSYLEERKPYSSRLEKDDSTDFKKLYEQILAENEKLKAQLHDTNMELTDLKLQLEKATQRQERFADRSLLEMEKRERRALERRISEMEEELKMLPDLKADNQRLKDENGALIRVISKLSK
UniProt O14744: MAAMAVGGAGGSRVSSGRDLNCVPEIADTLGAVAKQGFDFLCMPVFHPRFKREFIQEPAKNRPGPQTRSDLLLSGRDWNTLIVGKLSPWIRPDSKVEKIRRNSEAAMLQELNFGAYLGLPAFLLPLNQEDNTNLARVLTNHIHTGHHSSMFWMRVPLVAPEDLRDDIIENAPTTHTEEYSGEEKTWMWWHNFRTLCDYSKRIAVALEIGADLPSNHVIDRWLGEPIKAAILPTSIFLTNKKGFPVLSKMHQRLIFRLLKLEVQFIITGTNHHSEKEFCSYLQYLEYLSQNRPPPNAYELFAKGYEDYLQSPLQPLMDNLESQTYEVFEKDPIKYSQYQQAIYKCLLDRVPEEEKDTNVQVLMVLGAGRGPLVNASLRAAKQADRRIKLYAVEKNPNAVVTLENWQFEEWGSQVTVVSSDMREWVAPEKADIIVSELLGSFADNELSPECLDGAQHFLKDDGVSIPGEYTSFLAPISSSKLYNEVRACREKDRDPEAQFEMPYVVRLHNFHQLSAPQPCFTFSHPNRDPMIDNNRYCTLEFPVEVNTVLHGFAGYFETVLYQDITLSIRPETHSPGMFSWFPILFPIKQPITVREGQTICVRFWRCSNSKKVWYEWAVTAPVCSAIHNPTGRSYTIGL

Target: Myosin phosphatase target subunit 1 (MYPT1), endogenous in HepG2 (human (endogenous in HepG2)) (UniProt O14974)
Assay: co-IP; endogenous proteins of HepG2 cells; anti-MYPT1^1-296 and anti-PRMT5 antibodies on Protein-A Sepharose, non-immune rabbit serum as control; Western blot

- binding: binds
Substance: Protein arginine methyltransferase 5 (PRMT5), endogenous in HepG2 (from UniProt O14744 1-637)
